Test results: the supplement of paper PMC12823440, “Inhibitors supercharge kinase turnover through native proteolytic circuits” (Nature, 2025)
Counter-ions that a name gives are not always drawn. The list shows a part of the results. The calls rarely recur for the same compound in another form.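 In K562 cells expressing nanoluciferase-fused kinases, luminescence was recorded at 4 h intervals between 2 and 18 h, normalized as percent of control with DMSO at 100% and a positive control at 0%. A significant (2 sigma) signal drop marks a time point as decreased. The authors' rule for a hit is not shown and takes in more than the number of time points.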

Chains of the proteins cited; added tags and fusions are not shown. Lines headed by an entry give the natural chain unless they say otherwise; changes in a name come on top.
UniProt P07949, whole entry, looked up: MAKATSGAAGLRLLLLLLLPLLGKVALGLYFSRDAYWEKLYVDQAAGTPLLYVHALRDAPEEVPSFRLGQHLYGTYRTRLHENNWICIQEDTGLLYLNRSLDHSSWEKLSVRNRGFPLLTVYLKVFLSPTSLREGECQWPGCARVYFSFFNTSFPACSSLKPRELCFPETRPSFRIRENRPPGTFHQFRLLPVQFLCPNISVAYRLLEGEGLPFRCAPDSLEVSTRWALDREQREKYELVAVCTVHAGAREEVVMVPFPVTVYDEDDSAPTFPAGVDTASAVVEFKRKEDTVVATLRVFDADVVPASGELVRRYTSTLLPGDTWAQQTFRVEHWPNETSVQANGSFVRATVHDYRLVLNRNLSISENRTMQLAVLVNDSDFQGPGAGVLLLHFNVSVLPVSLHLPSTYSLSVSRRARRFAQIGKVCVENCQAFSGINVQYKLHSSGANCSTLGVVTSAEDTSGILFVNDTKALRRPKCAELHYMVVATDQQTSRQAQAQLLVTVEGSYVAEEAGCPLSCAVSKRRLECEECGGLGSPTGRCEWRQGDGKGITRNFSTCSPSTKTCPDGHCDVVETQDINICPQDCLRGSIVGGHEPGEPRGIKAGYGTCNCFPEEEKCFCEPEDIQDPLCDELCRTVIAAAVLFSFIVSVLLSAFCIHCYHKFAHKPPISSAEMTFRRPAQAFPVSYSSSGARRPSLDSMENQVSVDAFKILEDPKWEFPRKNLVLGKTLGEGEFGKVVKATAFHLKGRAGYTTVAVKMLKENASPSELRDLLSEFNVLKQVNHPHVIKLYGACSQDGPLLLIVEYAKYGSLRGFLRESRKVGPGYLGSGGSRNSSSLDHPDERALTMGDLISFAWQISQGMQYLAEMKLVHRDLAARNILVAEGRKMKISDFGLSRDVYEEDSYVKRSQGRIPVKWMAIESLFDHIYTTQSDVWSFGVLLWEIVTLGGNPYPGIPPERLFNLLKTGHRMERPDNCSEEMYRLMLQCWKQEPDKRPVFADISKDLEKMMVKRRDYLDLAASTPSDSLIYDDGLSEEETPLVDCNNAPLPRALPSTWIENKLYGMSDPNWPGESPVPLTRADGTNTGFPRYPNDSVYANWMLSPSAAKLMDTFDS
UniProt Q9BRS2: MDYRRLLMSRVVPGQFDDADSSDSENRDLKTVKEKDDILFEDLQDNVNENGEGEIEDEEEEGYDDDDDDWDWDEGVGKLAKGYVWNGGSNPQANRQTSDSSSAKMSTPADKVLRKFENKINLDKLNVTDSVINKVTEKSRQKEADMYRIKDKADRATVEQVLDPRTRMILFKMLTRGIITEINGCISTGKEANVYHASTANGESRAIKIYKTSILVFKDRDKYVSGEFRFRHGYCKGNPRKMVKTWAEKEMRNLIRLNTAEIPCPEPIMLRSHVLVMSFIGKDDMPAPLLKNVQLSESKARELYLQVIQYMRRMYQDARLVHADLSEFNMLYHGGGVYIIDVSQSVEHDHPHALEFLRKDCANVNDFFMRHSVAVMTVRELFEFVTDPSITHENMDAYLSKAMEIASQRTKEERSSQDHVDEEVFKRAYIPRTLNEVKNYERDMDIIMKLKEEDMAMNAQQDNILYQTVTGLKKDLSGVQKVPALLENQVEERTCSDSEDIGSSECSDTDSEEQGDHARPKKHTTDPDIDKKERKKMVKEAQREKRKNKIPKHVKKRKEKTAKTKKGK
UniProt Q13546: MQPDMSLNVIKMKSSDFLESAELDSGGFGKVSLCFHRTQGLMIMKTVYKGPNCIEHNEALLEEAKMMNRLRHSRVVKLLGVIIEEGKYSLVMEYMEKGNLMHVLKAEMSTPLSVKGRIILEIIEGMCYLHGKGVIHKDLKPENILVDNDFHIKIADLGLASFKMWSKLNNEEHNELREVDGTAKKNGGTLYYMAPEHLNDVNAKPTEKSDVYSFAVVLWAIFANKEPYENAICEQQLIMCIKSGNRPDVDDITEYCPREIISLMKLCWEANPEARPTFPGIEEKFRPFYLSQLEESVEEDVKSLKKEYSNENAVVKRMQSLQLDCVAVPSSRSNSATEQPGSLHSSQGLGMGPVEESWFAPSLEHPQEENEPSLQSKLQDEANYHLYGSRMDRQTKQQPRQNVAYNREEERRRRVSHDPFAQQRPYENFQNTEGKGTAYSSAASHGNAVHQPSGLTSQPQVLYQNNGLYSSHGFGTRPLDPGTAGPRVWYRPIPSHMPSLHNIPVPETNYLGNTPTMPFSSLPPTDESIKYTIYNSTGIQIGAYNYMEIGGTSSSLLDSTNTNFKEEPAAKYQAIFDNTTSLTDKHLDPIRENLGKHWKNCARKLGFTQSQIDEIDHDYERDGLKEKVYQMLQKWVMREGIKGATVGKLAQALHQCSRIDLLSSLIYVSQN
UniProt Q15418, whole entry: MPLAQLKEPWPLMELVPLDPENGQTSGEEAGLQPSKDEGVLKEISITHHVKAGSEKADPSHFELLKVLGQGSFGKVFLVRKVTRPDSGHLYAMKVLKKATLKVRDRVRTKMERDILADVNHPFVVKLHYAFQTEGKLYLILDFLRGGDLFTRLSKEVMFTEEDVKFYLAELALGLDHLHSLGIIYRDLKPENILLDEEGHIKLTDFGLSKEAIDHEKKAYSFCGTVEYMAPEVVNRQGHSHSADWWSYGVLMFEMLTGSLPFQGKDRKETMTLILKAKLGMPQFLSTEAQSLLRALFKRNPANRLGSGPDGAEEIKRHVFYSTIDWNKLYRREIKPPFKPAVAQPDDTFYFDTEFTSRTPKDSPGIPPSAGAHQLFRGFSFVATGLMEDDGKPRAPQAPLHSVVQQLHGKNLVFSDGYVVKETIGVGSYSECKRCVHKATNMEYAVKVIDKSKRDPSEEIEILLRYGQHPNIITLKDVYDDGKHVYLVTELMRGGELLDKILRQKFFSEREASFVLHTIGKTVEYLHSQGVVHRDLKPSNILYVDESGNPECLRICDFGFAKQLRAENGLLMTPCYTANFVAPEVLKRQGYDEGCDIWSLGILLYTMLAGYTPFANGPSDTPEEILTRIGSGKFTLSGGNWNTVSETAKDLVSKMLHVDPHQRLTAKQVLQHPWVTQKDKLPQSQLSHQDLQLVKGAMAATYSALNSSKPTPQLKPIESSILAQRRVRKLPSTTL
UniProt Q9NYA1, whole entry: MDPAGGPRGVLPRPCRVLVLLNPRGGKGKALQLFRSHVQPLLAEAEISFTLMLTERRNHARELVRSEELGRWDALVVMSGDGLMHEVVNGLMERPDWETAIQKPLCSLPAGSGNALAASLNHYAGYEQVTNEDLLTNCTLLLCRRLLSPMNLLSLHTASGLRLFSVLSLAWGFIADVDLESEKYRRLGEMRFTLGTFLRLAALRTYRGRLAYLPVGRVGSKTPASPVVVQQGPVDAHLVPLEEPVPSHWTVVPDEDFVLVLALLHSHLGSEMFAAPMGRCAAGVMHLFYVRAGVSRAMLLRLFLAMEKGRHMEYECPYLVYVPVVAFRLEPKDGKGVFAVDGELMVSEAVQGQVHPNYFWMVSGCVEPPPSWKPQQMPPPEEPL
UniProt Q9Y6E0: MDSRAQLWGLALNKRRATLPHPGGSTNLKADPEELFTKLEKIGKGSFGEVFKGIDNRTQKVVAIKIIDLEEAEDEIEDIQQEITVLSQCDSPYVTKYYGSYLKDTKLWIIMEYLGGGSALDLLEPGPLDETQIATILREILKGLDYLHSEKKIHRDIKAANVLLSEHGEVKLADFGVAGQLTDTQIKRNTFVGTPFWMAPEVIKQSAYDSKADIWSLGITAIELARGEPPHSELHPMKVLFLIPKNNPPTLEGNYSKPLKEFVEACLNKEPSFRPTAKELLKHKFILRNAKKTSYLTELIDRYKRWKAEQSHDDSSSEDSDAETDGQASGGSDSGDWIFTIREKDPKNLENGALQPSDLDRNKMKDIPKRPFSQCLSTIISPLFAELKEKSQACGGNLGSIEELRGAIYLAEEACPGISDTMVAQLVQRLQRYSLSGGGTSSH
UniProt Q15208: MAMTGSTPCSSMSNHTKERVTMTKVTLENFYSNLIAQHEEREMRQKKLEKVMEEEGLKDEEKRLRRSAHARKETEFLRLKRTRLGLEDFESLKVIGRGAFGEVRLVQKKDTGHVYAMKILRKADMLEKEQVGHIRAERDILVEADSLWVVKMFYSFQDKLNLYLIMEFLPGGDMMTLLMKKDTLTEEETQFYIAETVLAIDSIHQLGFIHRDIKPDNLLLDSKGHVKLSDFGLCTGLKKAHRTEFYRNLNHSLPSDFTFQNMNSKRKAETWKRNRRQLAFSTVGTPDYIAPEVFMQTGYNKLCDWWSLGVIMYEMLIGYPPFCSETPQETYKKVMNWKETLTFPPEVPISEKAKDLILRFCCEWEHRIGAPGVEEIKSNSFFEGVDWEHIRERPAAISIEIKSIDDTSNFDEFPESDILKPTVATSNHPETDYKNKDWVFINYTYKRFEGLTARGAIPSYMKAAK
UniProt P42680: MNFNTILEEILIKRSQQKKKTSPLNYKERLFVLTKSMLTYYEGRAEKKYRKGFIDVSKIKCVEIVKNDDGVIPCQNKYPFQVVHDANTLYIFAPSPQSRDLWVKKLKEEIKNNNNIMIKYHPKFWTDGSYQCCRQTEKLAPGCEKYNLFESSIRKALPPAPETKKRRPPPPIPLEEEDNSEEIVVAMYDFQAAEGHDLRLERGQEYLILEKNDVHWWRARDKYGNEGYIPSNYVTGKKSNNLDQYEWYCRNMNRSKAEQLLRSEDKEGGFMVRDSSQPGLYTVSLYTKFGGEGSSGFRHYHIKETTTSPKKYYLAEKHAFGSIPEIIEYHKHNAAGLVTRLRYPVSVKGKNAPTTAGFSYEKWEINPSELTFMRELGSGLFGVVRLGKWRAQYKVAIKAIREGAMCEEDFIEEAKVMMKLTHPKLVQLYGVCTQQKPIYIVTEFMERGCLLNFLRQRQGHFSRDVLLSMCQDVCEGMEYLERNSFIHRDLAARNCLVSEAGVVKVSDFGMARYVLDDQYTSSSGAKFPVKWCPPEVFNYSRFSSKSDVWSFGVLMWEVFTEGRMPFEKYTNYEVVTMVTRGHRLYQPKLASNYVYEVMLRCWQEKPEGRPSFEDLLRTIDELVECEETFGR
UniProt P07947, whole entry, looked up: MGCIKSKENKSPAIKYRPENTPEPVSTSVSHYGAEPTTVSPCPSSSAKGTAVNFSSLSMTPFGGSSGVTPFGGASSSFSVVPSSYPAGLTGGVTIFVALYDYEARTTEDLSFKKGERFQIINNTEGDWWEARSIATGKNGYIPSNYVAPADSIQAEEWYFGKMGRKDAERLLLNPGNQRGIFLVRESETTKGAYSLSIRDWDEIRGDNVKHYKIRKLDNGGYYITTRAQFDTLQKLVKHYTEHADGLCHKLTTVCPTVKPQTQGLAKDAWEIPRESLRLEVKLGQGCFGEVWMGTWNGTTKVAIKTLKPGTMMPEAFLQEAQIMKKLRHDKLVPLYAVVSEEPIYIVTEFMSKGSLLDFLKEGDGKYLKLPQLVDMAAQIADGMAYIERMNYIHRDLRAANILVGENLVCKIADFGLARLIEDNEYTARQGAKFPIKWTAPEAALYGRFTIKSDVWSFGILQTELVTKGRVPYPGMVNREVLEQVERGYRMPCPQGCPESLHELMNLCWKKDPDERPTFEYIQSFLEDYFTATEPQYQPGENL
UniProt P43403: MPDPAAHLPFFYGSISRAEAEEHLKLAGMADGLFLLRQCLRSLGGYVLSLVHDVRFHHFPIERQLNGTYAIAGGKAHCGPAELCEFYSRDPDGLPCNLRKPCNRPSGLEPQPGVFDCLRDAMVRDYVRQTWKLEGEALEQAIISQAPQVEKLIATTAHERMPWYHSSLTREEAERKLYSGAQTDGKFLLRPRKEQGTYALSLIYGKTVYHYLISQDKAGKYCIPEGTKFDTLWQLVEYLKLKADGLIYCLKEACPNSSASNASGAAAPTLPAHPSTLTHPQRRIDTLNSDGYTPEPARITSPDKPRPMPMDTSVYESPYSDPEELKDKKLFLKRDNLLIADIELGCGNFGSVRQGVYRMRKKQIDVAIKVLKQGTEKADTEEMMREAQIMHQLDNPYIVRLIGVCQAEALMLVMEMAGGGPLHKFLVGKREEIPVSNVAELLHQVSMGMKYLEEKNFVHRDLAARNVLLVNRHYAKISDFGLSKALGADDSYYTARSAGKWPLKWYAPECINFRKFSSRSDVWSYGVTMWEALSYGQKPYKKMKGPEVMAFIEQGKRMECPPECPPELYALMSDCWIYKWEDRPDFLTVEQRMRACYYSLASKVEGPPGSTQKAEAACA

Experiments:
Conditions in all cases: K562; 2-18 h
[1] = target: RET (UniProt P07949); experiment: kinase-Nluc reporter destabilization hit call (1 = scored as downregulated) (binary); higher = compound decreases kinase abundance
[2] = target: RET_M918T (clone: RET_mut) (UniProt P07949); experiment: as above
[3] = target: RIOK1 (UniProt Q9BRS2); experiment: as above
[4] = target: RIPK1 (UniProt Q13546); experiment: as above
[5] = target: RIPK2 (UniProt O43353); experiment: as above
[6] = target: ROR2 (UniProt Q01974); experiment: as above
[7] = target: RPS6KA1 (UniProt Q15418); experiment: as above
[8] = target: SPHK1 (UniProt Q9NYA1); experiment: as above
[9] = target: SRC (UniProt P12931); experiment: as above
[10] = target: STK24 (UniProt Q9Y6E0); experiment: as above
[11] = target: STK38 (UniProt Q15208); experiment: as above
[12] = target: SYK (UniProt P43405); experiment: as above
[13] = target: TEC (UniProt P42680); experiment: as above
[14] = target: TYK2 (UniProt P29597); experiment: as above
[15] = target: ULK3 (UniProt Q6PHR2); experiment: as above
[16] = target: YES1 (UniProt P07947); experiment: as above
[17] = target: ZAK (UniProt Q9NYL2); experiment: as above
[18] = target: ZAP70 (UniProt P43403); experiment: as above
[19] = target: ABL1 (UniProt P00519); experiment: number of time points (of 5) at which kinase-Nluc abundance scored as decreased, DMSO-normalised (count); higher = more persistent destabilization
[20] = target: AKT1 (UniProt P31749); experiment: as above

SMILES	kinase-Nluc reporter destabilization hit call [1]	kinase-Nluc reporter destabilization hit call [2]	kinase-Nluc reporter destabilization hit call [3]	kinase-Nluc reporter destabilization hit call [4]	kinase-Nluc reporter destabilization hit call [5]	kinase-Nluc reporter destabilization hit call [6]	kinase-Nluc reporter destabilization hit call [7]	kinase-Nluc reporter destabilization hit call [8]	kinase-Nluc reporter destabilization hit call [9]	kinase-Nluc reporter destabilization hit call [10]	kinase-Nluc reporter destabilization hit call [11]	kinase-Nluc reporter destabilization hit call [12]	kinase-Nluc reporter destabilization hit call [13]	kinase-Nluc reporter destabilization hit call [14]	kinase-Nluc reporter destabilization hit call [15]	kinase-Nluc reporter destabilization hit call [16]	kinase-Nluc reporter destabilization hit call [17]	kinase-Nluc reporter destabilization hit call [18]	number of time points [19]	number of time points [20]
COc1cc(-c2cc(-c3cccc(O)c3)cnc2N)cc(OC)c1OC (2.5 µM)	inactive: 0	inactive: 0	inactive: 0	inactive: 0	inactive: 0	inactive: 0	inactive: 0	inactive: 0	inactive: 0	inactive: 0	inactive: 0	inactive: 0	inactive: 0	inactive: 0	inactive: 0	inactive: 0	inactive: 0	inactive: 0	2	0
C=CC(=O)Nc1cc(C(=O)NC)cc(-c2n[nH]c3ccccc23)c1 (10 µM)	inactive: 0	inactive: 0	inactive: 0	inactive: 0	inactive: 0	inactive: 0	inactive: 0	inactive: 0	inactive: 0	inactive: 0	inactive: 0	inactive: 0	inactive: 0	inactive: 0	inactive: 0	inactive: 0	inactive: 0	inactive: 0	0	0
C[C@@H](N)COc1ccc(-c2cnc3ccc(N[C@H](C)c4cccc(F)c4)nn23)cc1 [Taletrectinib] (2.5 µM)	inactive: 0	inactive: 0	inactive: 0	inactive: 0	inactive: 0	inactive: 0	inactive: 0	inactive: 0	inactive: 0	inactive: 0	inactive: 0	inactive: 0	inactive: 0	inactive: 0	inactive: 0	inactive: 0	inactive: 0	inactive: 0	0	0
C[C@H]1CNC(=O)c2cnn3ccc(nc23)N[C@H](C)c2cc(F)ccc2O1 [Repotrectinib] (2.5 µM)	inactive: 0	inactive: 0	inactive: 0	inactive: 0	inactive: 0	inactive: 0	inactive: 0	inactive: 0	inactive: 0	inactive: 0	inactive: 0	inactive: 0	inactive: 0	inactive: 0	inactive: 0	inactive: 0	inactive: 0	inactive: 0	1	0
O=S(=O)(N=Cc1c(O)ccc2ccccc12)c1cccs1 (10 µM)	inactive: 0	inactive: 0	inactive: 0	inactive: 0	inactive: 0	inactive: 0	inactive: 0	inactive: 0	inactive: 0	inactive: 0	inactive: 0	inactive: 0	inactive: 0	inactive: 0	inactive: 0	inactive: 0	inactive: 0	inactive: 0	0	0
CC(C)(C)c1ccc(C(=O)Nc2cn3cc(-n4ccnc4)ccc3n2)cc1 (10 µM)	inactive: 0	inactive: 0	inactive: 0	inactive: 0	inactive: 0	inactive: 0	inactive: 0	inactive: 0	inactive: 0	inactive: 0	inactive: 0	inactive: 0	inactive: 0	inactive: 0	inactive: 0	inactive: 0	inactive: 0	inactive: 0	0	0
COc1c(OCCCN2CCOCC2)ccc2c3n(c(=NC(=O)c4cnc(N)nc4)nc12)CCN3 [Copanlisib (dihydrochloride)] (10 µM)	inactive: 0	inactive: 0	inactive: 0	inactive: 0	inactive: 0	inactive: 0	inactive: 0	inactive: 0	inactive: 0	inactive: 0	inactive: 0	inactive: 0	inactive: 0	inactive: 0	inactive: 0	inactive: 0	inactive: 0	inactive: 0	5	0
CS(=O)(=O)N1CCN(Cc2cn3cc(-c4cnc(N)nc4)nc(N4CCOCC4)c3n2)CC1 (10 µM)	inactive: 0	inactive: 0	inactive: 0	inactive: 0	inactive: 0	inactive: 0	inactive: 0	inactive: 0	inactive: 0	inactive: 0	inactive: 0	inactive: 0	inactive: 0	inactive: 0	inactive: 0	inactive: 0	inactive: 0	inactive: 0	4	0
Cc1cc(/C=C2\CC/C(=C\c3cc(C)c(O)c(C)c3)C2=O)cc(C)c1O [Pentagamavunon-1] (2.5 µM)	inactive: 0	inactive: 0	inactive: 0	inactive: 0	inactive: 0	inactive: 0	inactive: 0	inactive: 0	inactive: 0	inactive: 0	inactive: 0	inactive: 0	inactive: 0	inactive: 0	inactive: 0	inactive: 0	inactive: 0	inactive: 0	2	3
O=C(Nc1ncc(SCCN2CCCC2)s1)[C@]1(c2ccc(S(=O)(=O)C3CC3)cc2)C[C@H]1C1CCCCC1 [Globalagliatin] (2.5 µM)	inactive: 0	inactive: 0	inactive: 0	inactive: 0	inactive: 0	inactive: 0	inactive: 0	inactive: 0	inactive: 0	inactive: 0	inactive: 0	inactive: 0	inactive: 0	inactive: 0	inactive: 0	inactive: 0	inactive: 0	inactive: 0	0	0
CC(C)Cn1cc(C#N)c2cc(Oc3ccc(NC(=O)[C@@H]4CCCN4)cc3)ccc21 (10 µM)	inactive: 0	inactive: 0	inactive: 0	inactive: 0	inactive: 0	inactive: 0	inactive: 0	inactive: 0	inactive: 0	inactive: 0	inactive: 0	inactive: 0	inactive: 0	inactive: 0	inactive: 0	inactive: 0	inactive: 0	inactive: 0	0	0
Cc1cc([N+](=O)[O-])c(NS(=O)(=O)c2cccc(C(=O)O)c2)cc1-c1cccnc1 [Alofanib] (10 µM)	inactive: 0	inactive: 0	inactive: 0	inactive: 0	inactive: 0	inactive: 0	inactive: 0	inactive: 0	inactive: 0	inactive: 0	inactive: 0	inactive: 0	inactive: 0	inactive: 0	inactive: 0	inactive: 0	inactive: 0	inactive: 0	0	0
CCC(=O)N1CC[C@H](Nc2ncnc3c2CN(c2cnc(OC)c(C(F)(F)F)c2)CC3)C1 [Leniolisib] (10 µM)	inactive: 0	inactive: 0	inactive: 0	inactive: 0	inactive: 0	inactive: 0	inactive: 0	inactive: 0	inactive: 0	inactive: 0	inactive: 0	inactive: 0	inactive: 0	inactive: 0	inactive: 0	inactive: 0	inactive: 0	inactive: 0	0	0
CN(C)CCCn1cc(C2=C(c3c[nH]c4ccccc34)C(=O)NC2=O)c2ccccc21 [Bisindolylmaleimide I] (2.5 µM)	inactive: 0	inactive: 0	inactive: 0	inactive: 0	inactive: 0	inactive: 0	inactive: 0	inactive: 0	inactive: 0	inactive: 0	inactive: 0	inactive: 0	inactive: 0	inactive: 0	inactive: 0	inactive: 0	inactive: 0	inactive: 0	0	0
COc1ccc(S(=O)(=O)N(CCO)c2ccccc2CN(C)CC=Cc2ccc(Cl)cc2)cc1 (2.5 µM)	inactive: 0	inactive: 0	inactive: 0	inactive: 0	inactive: 0	inactive: 0	inactive: 0	inactive: 0	inactive: 0	inactive: 0	inactive: 0	inactive: 0	inactive: 0	inactive: 0	inactive: 0	inactive: 0	inactive: 0	inactive: 0	0	0
Cc1cc(=O)[nH]c(=S)[nH]1 [Methylthiouracil] (10 µM)	inactive: 0	inactive: 0	inactive: 0	inactive: 0	inactive: 0	inactive: 0	inactive: 0	inactive: 0	inactive: 0	inactive: 0	inactive: 0	inactive: 0	inactive: 0	inactive: 0	inactive: 0	inactive: 0	inactive: 0	inactive: 0	0	0
O=c1cc(-c2ccc(O)cc2)oc2cc(O)c([C@@H]3O[C@H](CO)[C@@H](O)[C@H](O)[C@H]3O)c(O)c12 [Isovitexin] (10 µM)	inactive: 0	inactive: 0	inactive: 0	inactive: 0	inactive: 0	inactive: 0	inactive: 0	inactive: 0	inactive: 0	inactive: 0	inactive: 0	inactive: 0	inactive: 0	inactive: 0	inactive: 0	inactive: 0	inactive: 0	inactive: 0	0	0
Cc1nc(NC(=O)N2CCC[C@H]2C(N)=O)sc1-c1csc(C(C)(C)C)n1 (10 µM)	inactive: 0	inactive: 0	inactive: 0	inactive: 0	inactive: 0	inactive: 0	inactive: 0	inactive: 0	inactive: 0	inactive: 0	inactive: 0	inactive: 0	inactive: 0	inactive: 0	inactive: 0	inactive: 0	inactive: 0	inactive: 0	0	0
CN(c1ccc(C(F)(F)F)cc1)S(=O)(=O)c1ccc(C(=O)Nc2nc(-c3ccccn3)cs2)cc1 (2.5 µM)	inactive: 0	inactive: 0	inactive: 0	inactive: 0	inactive: 0	inactive: 0	inactive: 0	inactive: 0	inactive: 0	inactive: 0	inactive: 0	inactive: 0	inactive: 0	inactive: 0	inactive: 0	inactive: 0	inactive: 0	inactive: 0	0	0

Reprinted from above for reference:
SMILES	kinase-Nluc reporter destabilization hit call [1]	kinase-Nluc reporter destabilization hit call [2]	kinase-Nluc reporter destabilization hit call [3]	kinase-Nluc reporter destabilization hit call [4]	kinase-Nluc reporter destabilization hit call [5]	kinase-Nluc reporter destabilization hit call [6]	kinase-Nluc reporter destabilization hit call [7]	kinase-Nluc reporter destabilization hit call [8]	kinase-Nluc reporter destabilization hit call [9]	kinase-Nluc reporter destabilization hit call [10]	kinase-Nluc reporter destabilization hit call [11]	kinase-Nluc reporter destabilization hit call [12]	kinase-Nluc reporter destabilization hit call [13]	kinase-Nluc reporter destabilization hit call [14]	kinase-Nluc reporter destabilization hit call [15]	kinase-Nluc reporter destabilization hit call [16]	kinase-Nluc reporter destabilization hit call [17]	kinase-Nluc reporter destabilization hit call [18]	number of time points [19]	number of time points [20]
O=c1cc(-c2ccc(O)cc2)oc2cc(O)c([C@@H]3O[C@H](CO)[C@@H](O)[C@H](O)[C@H]3O)c(O)c12 [Isovitexin] (10 µM)	inactive: 0	inactive: 0	inactive: 0	inactive: 0	inactive: 0	inactive: 0	inactive: 0	inactive: 0	inactive: 0	inactive: 0	inactive: 0	inactive: 0	inactive: 0	inactive: 0	inactive: 0	inactive: 0	inactive: 0	inactive: 0	0	0
Cc1nc(NC(=O)N2CCC[C@H]2C(N)=O)sc1-c1csc(C(C)(C)C)n1 (10 µM)	inactive: 0	inactive: 0	inactive: 0	inactive: 0	inactive: 0	inactive: 0	inactive: 0	inactive: 0	inactive: 0	inactive: 0	inactive: 0	inactive: 0	inactive: 0	inactive: 0	inactive: 0	inactive: 0	inactive: 0	inactive: 0	0	0
